According to the supplement of paper PMC10849652:
This is one part of the list.

Chains of the proteins cited; added tags and fusions are not shown. Lines headed by an entry give the natural chain unless they say otherwise; changes in a name come on top.
UniProt Q9UID6: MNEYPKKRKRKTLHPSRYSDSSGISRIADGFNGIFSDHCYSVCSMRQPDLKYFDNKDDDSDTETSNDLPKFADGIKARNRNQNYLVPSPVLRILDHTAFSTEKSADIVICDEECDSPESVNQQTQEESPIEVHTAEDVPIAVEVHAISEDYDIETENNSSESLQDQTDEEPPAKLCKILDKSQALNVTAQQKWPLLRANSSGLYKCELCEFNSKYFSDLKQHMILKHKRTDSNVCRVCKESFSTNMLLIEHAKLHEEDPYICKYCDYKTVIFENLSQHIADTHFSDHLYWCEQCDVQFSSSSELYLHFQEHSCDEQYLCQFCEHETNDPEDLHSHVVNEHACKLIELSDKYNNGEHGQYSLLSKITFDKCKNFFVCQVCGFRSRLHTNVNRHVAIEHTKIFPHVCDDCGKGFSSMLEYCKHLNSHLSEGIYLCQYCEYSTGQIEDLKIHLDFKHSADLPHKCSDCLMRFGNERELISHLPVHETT
UniProt Q5BKZ1: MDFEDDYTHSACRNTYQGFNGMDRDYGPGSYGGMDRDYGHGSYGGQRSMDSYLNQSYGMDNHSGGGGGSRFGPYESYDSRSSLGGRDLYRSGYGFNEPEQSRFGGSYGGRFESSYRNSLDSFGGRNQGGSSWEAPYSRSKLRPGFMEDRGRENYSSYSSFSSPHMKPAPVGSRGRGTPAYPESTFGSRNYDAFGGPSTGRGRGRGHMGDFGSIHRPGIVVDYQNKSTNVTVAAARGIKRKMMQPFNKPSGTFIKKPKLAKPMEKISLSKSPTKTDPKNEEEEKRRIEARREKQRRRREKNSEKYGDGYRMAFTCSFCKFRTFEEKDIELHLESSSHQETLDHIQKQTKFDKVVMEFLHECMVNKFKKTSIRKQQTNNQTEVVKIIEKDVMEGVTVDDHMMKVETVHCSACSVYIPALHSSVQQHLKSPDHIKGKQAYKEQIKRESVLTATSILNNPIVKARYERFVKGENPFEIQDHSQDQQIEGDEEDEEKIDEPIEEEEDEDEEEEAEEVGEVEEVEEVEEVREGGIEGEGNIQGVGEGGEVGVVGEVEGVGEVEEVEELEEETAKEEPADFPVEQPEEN
UniProt Q16587: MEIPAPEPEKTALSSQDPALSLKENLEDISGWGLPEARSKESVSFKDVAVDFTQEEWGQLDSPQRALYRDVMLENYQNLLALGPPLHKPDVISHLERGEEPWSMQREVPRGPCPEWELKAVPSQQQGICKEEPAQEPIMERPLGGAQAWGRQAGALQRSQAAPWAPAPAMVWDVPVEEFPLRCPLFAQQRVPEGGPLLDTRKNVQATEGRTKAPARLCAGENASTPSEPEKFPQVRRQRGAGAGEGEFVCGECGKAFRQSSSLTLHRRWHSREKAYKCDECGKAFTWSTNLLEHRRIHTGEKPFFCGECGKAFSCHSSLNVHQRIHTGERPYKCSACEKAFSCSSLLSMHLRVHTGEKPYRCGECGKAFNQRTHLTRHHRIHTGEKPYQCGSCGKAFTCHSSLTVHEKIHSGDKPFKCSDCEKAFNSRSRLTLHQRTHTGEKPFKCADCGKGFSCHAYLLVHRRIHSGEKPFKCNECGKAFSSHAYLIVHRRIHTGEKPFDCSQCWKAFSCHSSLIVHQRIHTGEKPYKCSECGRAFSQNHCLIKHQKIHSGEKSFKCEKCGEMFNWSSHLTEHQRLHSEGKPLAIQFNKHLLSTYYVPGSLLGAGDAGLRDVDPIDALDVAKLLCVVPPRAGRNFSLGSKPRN
UniProt Q8N1G0: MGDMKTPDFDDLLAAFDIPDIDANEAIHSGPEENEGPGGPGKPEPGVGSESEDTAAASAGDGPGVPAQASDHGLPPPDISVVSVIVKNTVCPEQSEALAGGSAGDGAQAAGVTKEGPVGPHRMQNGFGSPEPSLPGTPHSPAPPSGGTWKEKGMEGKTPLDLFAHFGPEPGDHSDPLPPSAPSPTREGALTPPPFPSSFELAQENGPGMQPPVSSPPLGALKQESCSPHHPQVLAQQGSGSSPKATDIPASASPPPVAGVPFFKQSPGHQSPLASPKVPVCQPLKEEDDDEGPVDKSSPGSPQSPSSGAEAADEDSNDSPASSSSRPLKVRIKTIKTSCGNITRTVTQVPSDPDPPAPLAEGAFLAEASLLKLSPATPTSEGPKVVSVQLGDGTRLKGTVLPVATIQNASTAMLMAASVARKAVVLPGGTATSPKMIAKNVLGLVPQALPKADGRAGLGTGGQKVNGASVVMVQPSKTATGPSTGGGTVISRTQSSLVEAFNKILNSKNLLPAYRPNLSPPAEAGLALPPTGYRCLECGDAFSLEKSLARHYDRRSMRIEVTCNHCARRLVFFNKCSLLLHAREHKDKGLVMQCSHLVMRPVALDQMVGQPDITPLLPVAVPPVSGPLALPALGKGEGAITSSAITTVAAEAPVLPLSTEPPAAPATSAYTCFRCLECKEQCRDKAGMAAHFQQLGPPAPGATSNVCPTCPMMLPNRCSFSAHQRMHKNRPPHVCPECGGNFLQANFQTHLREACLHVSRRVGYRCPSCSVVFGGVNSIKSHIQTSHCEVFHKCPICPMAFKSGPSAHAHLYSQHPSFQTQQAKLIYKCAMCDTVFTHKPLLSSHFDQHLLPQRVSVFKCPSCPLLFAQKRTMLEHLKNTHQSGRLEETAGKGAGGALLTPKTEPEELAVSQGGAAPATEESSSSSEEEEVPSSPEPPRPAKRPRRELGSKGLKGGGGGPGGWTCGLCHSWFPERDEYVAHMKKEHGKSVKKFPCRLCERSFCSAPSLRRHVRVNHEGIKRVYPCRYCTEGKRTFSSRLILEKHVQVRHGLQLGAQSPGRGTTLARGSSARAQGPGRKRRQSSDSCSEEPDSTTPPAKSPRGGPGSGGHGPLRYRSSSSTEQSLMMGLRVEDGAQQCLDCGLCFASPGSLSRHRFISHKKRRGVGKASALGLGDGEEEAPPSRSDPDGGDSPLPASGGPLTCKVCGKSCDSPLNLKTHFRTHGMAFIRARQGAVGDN
UniProt Q96BR6: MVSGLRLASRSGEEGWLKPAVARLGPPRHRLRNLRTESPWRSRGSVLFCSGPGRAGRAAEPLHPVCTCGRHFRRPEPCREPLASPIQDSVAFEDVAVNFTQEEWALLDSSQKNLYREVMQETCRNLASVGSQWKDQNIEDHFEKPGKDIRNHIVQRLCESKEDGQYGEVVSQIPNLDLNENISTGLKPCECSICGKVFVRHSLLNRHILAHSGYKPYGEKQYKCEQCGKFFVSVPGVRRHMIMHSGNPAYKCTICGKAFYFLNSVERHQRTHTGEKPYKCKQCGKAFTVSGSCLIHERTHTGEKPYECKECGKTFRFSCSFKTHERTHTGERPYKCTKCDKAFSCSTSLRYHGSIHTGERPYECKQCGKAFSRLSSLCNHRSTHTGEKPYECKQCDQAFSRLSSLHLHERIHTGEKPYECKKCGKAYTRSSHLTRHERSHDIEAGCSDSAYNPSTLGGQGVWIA
UniProt Q9BU19: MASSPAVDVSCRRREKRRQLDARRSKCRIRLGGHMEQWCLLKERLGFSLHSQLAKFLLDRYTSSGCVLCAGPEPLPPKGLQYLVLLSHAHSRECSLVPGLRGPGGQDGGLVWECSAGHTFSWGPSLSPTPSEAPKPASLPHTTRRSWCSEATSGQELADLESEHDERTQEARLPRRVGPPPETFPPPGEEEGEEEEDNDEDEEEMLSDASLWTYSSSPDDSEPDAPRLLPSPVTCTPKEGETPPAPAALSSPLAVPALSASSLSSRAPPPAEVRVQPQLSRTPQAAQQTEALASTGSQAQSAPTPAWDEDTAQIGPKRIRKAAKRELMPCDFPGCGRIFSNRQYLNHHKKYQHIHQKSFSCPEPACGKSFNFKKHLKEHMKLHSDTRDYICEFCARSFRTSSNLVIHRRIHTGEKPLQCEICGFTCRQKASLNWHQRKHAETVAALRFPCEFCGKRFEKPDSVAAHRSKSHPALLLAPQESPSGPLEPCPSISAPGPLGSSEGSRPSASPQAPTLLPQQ
UniProt Q9UL40: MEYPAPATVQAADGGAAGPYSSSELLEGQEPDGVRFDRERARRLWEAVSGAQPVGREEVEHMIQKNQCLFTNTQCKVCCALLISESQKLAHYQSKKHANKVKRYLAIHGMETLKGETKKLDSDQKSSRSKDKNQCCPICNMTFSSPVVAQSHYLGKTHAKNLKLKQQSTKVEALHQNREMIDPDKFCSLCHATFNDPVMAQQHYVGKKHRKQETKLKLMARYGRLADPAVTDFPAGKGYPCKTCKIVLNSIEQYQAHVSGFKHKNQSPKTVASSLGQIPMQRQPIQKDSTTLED
UniProt Q8TF68: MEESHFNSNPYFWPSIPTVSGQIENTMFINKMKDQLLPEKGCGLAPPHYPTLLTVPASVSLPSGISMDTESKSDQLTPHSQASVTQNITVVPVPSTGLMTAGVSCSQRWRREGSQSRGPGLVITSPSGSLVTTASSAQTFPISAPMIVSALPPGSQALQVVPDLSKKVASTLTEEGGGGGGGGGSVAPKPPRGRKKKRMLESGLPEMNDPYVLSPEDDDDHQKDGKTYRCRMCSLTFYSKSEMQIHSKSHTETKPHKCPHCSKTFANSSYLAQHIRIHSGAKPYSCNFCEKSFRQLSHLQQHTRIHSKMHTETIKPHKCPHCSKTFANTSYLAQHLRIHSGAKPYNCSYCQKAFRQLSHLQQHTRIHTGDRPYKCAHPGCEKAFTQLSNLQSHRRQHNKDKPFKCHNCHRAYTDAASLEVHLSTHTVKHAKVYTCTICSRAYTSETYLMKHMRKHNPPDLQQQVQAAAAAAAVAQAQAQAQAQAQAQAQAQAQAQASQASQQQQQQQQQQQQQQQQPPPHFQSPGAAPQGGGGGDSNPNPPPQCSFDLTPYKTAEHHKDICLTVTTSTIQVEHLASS
UniProt Q96MX3: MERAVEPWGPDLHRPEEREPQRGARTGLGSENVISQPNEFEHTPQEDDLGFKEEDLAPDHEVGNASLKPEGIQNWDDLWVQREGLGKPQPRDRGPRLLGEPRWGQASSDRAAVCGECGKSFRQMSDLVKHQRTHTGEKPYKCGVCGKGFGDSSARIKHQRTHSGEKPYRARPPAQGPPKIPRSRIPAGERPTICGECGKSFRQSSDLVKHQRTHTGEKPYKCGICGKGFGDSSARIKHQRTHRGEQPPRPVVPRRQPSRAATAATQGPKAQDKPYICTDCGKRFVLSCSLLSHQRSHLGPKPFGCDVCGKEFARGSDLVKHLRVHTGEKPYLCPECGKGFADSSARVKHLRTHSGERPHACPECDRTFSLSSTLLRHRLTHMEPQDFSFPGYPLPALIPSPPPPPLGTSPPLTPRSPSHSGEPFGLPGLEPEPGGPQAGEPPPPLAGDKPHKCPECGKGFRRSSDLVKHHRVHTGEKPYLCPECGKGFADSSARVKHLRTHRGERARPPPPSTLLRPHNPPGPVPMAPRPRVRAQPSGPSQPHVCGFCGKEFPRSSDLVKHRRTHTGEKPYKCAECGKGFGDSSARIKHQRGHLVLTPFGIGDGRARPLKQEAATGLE
UniProt O43257, whole entry, looked up: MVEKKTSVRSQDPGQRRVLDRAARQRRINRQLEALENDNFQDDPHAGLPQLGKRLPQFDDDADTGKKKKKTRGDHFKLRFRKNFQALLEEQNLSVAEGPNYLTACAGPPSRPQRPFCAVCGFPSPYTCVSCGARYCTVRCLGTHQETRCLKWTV
UniProt Q6ZN55: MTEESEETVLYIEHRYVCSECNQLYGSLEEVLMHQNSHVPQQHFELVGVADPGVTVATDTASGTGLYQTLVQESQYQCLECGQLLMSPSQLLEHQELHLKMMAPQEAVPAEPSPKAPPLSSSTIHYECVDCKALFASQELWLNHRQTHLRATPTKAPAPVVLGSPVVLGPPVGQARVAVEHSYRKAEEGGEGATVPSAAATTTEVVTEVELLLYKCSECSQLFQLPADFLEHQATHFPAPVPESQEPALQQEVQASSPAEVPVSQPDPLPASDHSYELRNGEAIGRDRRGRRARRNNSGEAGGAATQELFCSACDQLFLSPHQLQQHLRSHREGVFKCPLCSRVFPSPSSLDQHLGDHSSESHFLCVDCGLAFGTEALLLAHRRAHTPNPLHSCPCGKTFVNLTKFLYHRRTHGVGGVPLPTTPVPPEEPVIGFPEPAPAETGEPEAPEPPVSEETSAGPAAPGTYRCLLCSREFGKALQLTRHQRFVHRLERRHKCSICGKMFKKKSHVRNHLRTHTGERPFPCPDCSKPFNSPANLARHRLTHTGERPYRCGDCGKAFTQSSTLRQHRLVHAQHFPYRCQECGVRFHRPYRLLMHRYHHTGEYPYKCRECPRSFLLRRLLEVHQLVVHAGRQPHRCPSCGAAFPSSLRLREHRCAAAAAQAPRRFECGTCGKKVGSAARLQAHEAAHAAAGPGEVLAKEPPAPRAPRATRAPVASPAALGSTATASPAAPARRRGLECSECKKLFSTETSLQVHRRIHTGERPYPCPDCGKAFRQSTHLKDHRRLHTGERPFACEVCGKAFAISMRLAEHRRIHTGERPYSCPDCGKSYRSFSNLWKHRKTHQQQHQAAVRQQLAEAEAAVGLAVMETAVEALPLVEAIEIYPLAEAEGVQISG

Compound: CNc1nc(-c2ccc3c(N)n[nH]c3c2)cc(N2C[C@@H](C(=O)NC3CCCCC3)CC[C@H]2C)n1
Test: log2 fold change, soluble protein after heating vs DMSO (PISA); higher = thermal stabilisation; K562 lysate, 10 uM; active = over 0.2 and 3.5 SD of the protein, either way, in both replicates (recomputed)
Outline: (§1)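 Dounce homogenisation of K562 pellets in PBS pH 7.4 with 1 mM MgCl2 produced a crude extract, used at 1 mg/mL protein. Exposure to 10 μM compound lasted 30 min, and aliquots were then heated for 3 min across 48°C-58°C, pooled and brought to 0.5% NP-40 at 4°C. The supernatant after 21,000xg for 90 min was quantified by TMTpro 16plex LC-MS/MS with channel sums equalised. Duplicate values are given as log-two fold change in thermal stability relative to solvent controls.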

log2 fold change, inactive:
ZNF800 (UniProt Q2TB10) 0.079
ZNF639 (UniProt Q9UID6) -0.119
ZNF785 (UniProt A8K8V0) -0.69
ZNF101 (UniProt Q8IZC7) 0.033
ZSWIM7 (UniProt Q19AV6) 0
ZNF445 (UniProt P59923) -0.038
ZNF326 (UniProt Q5BKZ1) -0.013
ZNF74 isoform 5 (UniProt Q16587) 0.016
ZNF687 (UniProt Q8N1G0) -0.084
ZNF669 (UniProt Q96BR6) -0.162
ZNF444 (UniProt Q8N0Y2) 0.009
ZNF692 isoform 5 (UniProt Q9BU19) -0.192
ZNF8 (UniProt P17098) -0.059
ZNF592 (UniProt Q92610) -0.031
ZNF346 (UniProt Q9UL40) -0.029
ZNF384 (UniProt Q8TF68) 0.224

Compound: COC(=O)N[C@@H](C)CNc1nccc(-c2cn(C(C)C)nc2-c2cc(Cl)cc(NS(C)(=O)=O)c2F)n1 [encorafenib]
Test: as above
Outline: as §1

log2 fold change, inactive:
ZNF460 (UniProt Q14592) 0.092
ZNF48 (UniProt Q96MX3) 0.08
ZNF595 (UniProt Q8IYB9) -0.024
ZNF326 (UniProt Q5BKZ1) 0.017
ZNF74 isoform 5 (UniProt Q16587) -0.145
ZNF687 (UniProt Q8N1G0) 0.122
ZNHIT1 (UniProt O43257) 0.308
ZNF77 (UniProt Q15935) 0.094
ZNF708 (UniProt P17019) -0.029
ZNF592 (UniProt Q92610) -0.074
ZNF346 (UniProt Q9UL40) -0.006
ZNF384 (UniProt Q8TF68) -0.221
ZNF574 isoform 2 (UniProt Q6ZN55) 0.101

Compound: COC(=O)[C@H](CCSC)NC(=O)C1=C(C=C(C=C1)NC[C@H](CS)N)C2=CC=CC=C2
Test: as above
Outline: as §1

log2 fold change, inactive:
ZNF460 (UniProt Q14592) -0.023
ZNF48 (UniProt Q96MX3) -0.196
ZNF595 (UniProt Q8IYB9) -0.027
ZNF326 (UniProt Q5BKZ1) -0.042
ZNF74 isoform 5 (UniProt Q16587) 0.018
ZNF687 (UniProt Q8N1G0) 0.035
ZNHIT1 (UniProt O43257) -0.283
ZNF77 (UniProt Q15935) 0.226
ZNF708 (UniProt P17019) 0.072
ZNF592 (UniProt Q92610) 0.071
ZNF346 (UniProt Q9UL40) 0.062
ZNF384 (UniProt Q8TF68) 0.085
ZNF574 isoform 2 (UniProt Q6ZN55) 0.094

Compound: COc1cc(Nc2ncc3c(n2)-c2ccc(Cl)cc2C(c2c(F)cccc2OC)=NC3)ccc1C(=O)O [alisertib]
Test: as above
Outline: as §1

log2 fold change, inactive:
ZNF639 (UniProt Q9UID6) -0.053
ZNF280B (UniProt Q86YH2) -0.006
ZNF326 (UniProt Q5BKZ1) 0.089
ZNF74 isoform 5 (UniProt Q16587) -0.082
ZNF687 (UniProt Q8N1G0) 0.044
ZNHIT1 (UniProt O43257) -0.05
ZYG11A (UniProt Q6WRX3) -0.08
ZNF668 isoform 2 (UniProt Q96K58) 0.015
ZNF669 (UniProt Q96BR6) -0.11
ZNF8 (UniProt P17098) -0.022
ZNF346 (UniProt Q9UL40) -0.03
ZNF324 (UniProt O75467) 0.003
ZNF384 (UniProt Q8TF68) -0.069
ZNF574 isoform 2 (UniProt Q6ZN55) 0.006
ZNF654, A0A1B0GWA0 -0.047

Compound: COc1cc2nc(-c3cc(F)ccc3O)nc(N[C@@H]3CNC[C@H]3C(C)(C)O)c2cc1OC
Test: as above
Outline: as §1

log2 fold change, inactive:
ZNF800 (UniProt Q2TB10) -0.126
ZNF785 (UniProt A8K8V0) -0.22
ZNF101 (UniProt Q8IZC7) 0
ZNF48 (UniProt Q96MX3) 0.007
ZNF74 isoform 5 (UniProt Q16587) 0.012
ZNF687 (UniProt Q8N1G0) -0.125
ZNF512B (UniProt Q96KM6) 0.032
ZNF771 (UniProt Q7L3S4) -0.007
ZYG11A (UniProt Q6WRX3) 0.212
ZNF668 isoform 2 (UniProt Q96K58) 0.002
ZNF669 (UniProt Q96BR6) -0.1
ZNF358 (UniProt Q9NW07) 0.005
ZNF592 (UniProt Q92610) -0.04
ZNF346 (UniProt Q9UL40) 0.019
ZNF324 (UniProt O75467) -0.084
ZNF384 (UniProt Q8TF68) -0.177
ZNF280D (UniProt Q6N043) -0.099
ZNF574 isoform 2 (UniProt Q6ZN55) 0.105
ZNF654, A0A1B0GWA0 0.048
